Source: the supplement of paper PMC6411743
± gives the standard deviation of the averaged measurements. This is one part of the list.

How the values were obtained:
Test in all cases: NP40-soluble protein abundance relative to vehicle (solubility fold change) (ratio); higher = more soluble protein in presence of GTP
[1] = biological target: T1, A8K878 and related entries (UniProt P55145)
T1 sequence (whole entry): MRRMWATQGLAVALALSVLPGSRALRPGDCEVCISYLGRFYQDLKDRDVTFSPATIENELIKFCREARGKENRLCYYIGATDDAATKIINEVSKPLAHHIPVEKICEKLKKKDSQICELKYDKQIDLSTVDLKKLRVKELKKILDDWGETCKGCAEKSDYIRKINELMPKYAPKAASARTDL
How it was run: (§1)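 In three independent experiments, Jurkat crude lysate made by Dounce homogenisation was treated for 10 min at room temperature and then 3 min at 37 °C with eight concentrations ranging from 0.1 to 10 mM. It was then solubilised with 0.8% NP40 plus benzonase for 60 min at 4 °C and ultracentrifuged. The supernatant was TMT-labelled for LC-MS/MS, and each value is the fold change against the detergent-processed vehicle for the same replicate, using vsn-normalised intensities.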

[2] = biological target: T2, B1ALK7 and related entries (UniProt Q14155)
T2 sequence (whole entry): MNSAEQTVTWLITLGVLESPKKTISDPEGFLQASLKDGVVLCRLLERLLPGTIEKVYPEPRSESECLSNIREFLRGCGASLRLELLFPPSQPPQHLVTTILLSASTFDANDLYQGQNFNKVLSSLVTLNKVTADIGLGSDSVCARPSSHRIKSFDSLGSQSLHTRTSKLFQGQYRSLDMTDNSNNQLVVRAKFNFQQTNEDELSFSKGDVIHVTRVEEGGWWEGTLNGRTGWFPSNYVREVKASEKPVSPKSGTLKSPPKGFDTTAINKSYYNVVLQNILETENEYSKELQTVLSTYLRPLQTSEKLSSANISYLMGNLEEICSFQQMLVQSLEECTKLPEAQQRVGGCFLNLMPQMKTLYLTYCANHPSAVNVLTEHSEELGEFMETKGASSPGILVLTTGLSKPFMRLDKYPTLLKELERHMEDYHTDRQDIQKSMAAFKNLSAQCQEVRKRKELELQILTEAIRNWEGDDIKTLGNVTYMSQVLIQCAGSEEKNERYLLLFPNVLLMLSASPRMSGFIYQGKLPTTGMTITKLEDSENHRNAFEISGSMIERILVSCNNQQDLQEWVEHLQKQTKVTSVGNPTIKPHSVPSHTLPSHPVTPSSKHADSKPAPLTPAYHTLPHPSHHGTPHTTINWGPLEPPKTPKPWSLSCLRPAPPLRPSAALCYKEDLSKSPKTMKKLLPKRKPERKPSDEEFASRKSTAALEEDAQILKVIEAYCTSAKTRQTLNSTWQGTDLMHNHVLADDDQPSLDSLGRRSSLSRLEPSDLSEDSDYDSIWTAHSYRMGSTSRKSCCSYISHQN
How it was run: as §1

[3] = biological target: T3, B4DH95 and related entries (UniProt Q6P9H5)
T3 sequence (whole entry): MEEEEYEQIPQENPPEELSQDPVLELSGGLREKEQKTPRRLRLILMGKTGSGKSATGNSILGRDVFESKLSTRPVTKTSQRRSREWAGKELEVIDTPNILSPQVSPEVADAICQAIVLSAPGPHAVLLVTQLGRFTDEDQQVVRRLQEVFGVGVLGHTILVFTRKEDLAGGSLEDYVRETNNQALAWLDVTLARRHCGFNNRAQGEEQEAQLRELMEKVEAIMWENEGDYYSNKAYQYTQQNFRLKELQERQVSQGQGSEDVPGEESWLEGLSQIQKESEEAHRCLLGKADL
How it was run: as §1

[4] = biological target: T4, B4DI03 and related entries (UniProt Q9BY50)
T4 sequence (whole entry): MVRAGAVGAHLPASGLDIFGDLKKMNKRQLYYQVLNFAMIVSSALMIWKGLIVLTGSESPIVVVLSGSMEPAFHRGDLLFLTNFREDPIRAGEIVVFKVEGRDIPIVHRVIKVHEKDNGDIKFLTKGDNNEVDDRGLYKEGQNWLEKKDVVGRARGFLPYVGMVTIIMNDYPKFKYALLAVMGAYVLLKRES
How it was run: as §1

[5] = biological target: T5, B5MCT7 and related entries (UniProt P49593)
T5 sequence (whole entry): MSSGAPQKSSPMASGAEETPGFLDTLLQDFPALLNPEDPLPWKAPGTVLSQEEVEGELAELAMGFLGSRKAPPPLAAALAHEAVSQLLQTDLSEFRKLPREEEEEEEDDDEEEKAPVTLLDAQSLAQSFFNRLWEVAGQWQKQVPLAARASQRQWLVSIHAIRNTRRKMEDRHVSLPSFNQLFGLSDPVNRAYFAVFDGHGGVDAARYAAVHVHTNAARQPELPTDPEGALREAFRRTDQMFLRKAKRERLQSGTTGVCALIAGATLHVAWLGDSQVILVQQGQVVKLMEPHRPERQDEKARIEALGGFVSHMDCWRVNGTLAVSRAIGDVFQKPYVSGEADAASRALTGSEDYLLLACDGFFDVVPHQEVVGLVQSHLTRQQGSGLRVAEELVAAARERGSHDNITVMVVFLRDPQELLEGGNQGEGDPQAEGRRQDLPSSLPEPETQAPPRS
How it was run: as §1

[6] = biological target: T6, B5MDU6 and related entries (UniProt Q9H6V9)
T6 sequence (whole entry): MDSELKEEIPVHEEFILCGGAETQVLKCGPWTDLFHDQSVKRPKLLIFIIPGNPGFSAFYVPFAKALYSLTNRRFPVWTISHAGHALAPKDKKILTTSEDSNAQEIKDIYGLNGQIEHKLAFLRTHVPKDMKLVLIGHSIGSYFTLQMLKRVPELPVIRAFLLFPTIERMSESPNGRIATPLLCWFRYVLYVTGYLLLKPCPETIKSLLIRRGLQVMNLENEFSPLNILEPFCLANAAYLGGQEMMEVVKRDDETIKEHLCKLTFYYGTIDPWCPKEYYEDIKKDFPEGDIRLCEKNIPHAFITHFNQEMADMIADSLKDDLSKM
How it was run: as §1

[7] = biological target: T7, B7WPL0 and related entries (UniProt Q9NVN3)
T7 sequence (whole entry): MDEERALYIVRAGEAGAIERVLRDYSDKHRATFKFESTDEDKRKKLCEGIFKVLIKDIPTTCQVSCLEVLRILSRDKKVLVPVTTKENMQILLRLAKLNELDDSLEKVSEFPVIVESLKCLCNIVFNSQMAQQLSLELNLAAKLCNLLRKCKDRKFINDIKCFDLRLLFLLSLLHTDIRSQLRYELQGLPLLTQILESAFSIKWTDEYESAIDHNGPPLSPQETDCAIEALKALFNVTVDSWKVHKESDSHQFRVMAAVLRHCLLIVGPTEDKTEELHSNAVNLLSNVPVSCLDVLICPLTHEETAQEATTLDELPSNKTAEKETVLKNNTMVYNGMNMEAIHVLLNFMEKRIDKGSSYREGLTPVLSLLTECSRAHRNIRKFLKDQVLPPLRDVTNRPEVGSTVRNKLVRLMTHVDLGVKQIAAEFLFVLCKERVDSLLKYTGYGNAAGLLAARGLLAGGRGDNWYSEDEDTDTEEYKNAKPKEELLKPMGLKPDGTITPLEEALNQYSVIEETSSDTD
How it was run: as §1

Compound Nc1nc2c(ncn2[C@@H]2O[C@H](COP(=O)(O)OP(=O)(O)OP(=O)(O)O)[C@@H](O)[C@H]2O)c(=O)[nH]1 [guanosine triphosphate] has an NP40-soluble protein abundance ([1]; concentration: 0.1mM) of 0.783 ± 0.024, an NP40-soluble protein abundance ([1]; concentration: 0.5mM) of 0.756 ± 0.026 and an NP40-soluble protein abundance ([1]; concentration: 1mM) of 0.967 ± 0.038. It also gave an NP40-soluble protein abundance ([1]; concentration: 2mM) of 0.925 ± 0.055, an NP40-soluble protein abundance ([1]; concentration: 4mM) of 0.925 ± 0.049 and an NP40-soluble protein abundance ([1]; concentration: 6mM) of 0.896 ± 0.043. The NP40-soluble protein abundance ([1]; concentration: 8mM) was 0.824 ± 0.12, the NP40-soluble protein abundance ([1]; concentration: 10mM) was 0.956 ± 0.036 and the NP40-soluble protein abundance ([2]; concentration: 0.1mM) was 0.994 ± 0.036. For the same compound, the NP40-soluble protein abundance ([2]; concentration: 0.5mM) was 0.9903 ± 0.0023, the NP40-soluble protein abundance ([2]; concentration: 1mM) was 1.004 ± 0.007 and the NP40-soluble protein abundance ([2]; concentration: 2mM) was 1.01 ± 0.028. It also gave an NP40-soluble protein abundance ([2]; concentration: 4mM) of 0.996 ± 0.015, an NP40-soluble protein abundance ([2]; concentration: 6mM) of 0.9797 ± 0.0044 and an NP40-soluble protein abundance ([2]; concentration: 8mM) of 1 ± 0.033. It also gave an NP40-soluble protein abundance ([2]; concentration: 10mM) of 0.977 ± 0.046, an NP40-soluble protein abundance ([3]; concentration: 0.1mM) of 1.12 ± 0.051 and an NP40-soluble protein abundance ([3]; concentration: 0.5mM) of 1.07 ± 0.079. The NP40-soluble protein abundance ([3]; concentration: 1mM) was 0.99 ± 0.042, the NP40-soluble protein abundance ([3]; concentration: 2mM) was 1.02 ± 0.11 and the NP40-soluble protein abundance ([3]; concentration: 4mM) was 1.03 ± 0.055. For the same compound, the NP40-soluble protein abundance ([3]; concentration: 6mM) was 0.991 ± 0.044, the NP40-soluble protein abundance ([3]; concentration: 8mM) was 0.953 ± 0.02 and the NP40-soluble protein abundance ([3]; concentration: 10mM) was 0.974 ± 0.085. The NP40-soluble protein abundance ([4]; concentration: 0.1mM) was 0.955 ± 0.055, the NP40-soluble protein abundance ([4]; concentration: 0.5mM) was 0.952 ± 0.031 and the NP40-soluble protein abundance ([4]; concentration: 1mM) was 0.905 ± 0.052. It also gave an NP40-soluble protein abundance ([4]; concentration: 2mM) of 0.881 ± 0.07, an NP40-soluble protein abundance ([4]; concentration: 4mM) of 0.888 ± 0.05 and an NP40-soluble protein abundance ([4]; concentration: 6mM) of 0.903 ± 0.068. The NP40-soluble protein abundance ([4]; concentration: 8mM) was 0.886 ± 0.027, the NP40-soluble protein abundance ([4]; concentration: 10mM) was 0.859 ± 0.048 and the NP40-soluble protein abundance ([5]; concentration: 0.1mM) was 0.965 ± 0.084. It also gave an NP40-soluble protein abundance ([5]; concentration: 0.5mM) of 0.918 ± 0.076, an NP40-soluble protein abundance ([5]; concentration: 1mM) of 0.925 ± 0.059 and an NP40-soluble protein abundance ([5]; concentration: 2mM) of 0.891 ± 0.081. The NP40-soluble protein abundance ([5]; concentration: 4mM) was 0.892 ± 0.081, the NP40-soluble protein abundance ([5]; concentration: 6mM) was 0.863 ± 0.061 and the NP40-soluble protein abundance ([5]; concentration: 8mM) was 0.887 ± 0.077. For the same compound, the NP40-soluble protein abundance ([5]; concentration: 10mM) was 0.867 ± 0.067, the NP40-soluble protein abundance ([6]; concentration: 0.1mM) was 0.964 ± 0.021 and the NP40-soluble protein abundance ([6]; concentration: 0.5mM) was 0.997 ± 0.041. The NP40-soluble protein abundance ([6]; concentration: 1mM) was 0.947 ± 0.04, the NP40-soluble protein abundance ([6]; concentration: 2mM) was 0.91 ± 0.029 and the NP40-soluble protein abundance ([6]; concentration: 4mM) was 0.873 ± 0.024. The NP40-soluble protein abundance ([6]; concentration: 6mM) was 0.868 ± 0.021, the NP40-soluble protein abundance ([6]; concentration: 8mM) was 0.853 ± 0.029 and the NP40-soluble protein abundance ([6]; concentration: 10mM) was 0.827 ± 0.041. It also gave an NP40-soluble protein abundance ([7]; concentration: 0.1mM) of 1.1 ± 0.074, an NP40-soluble protein abundance ([7]; concentration: 0.5mM) of 1.03 ± 0.038 and an NP40-soluble protein abundance ([7]; concentration: 1mM) of 1.02 ± 0.047. The NP40-soluble protein abundance ([7]; concentration: 2mM) was 1.02 ± 0.12, the NP40-soluble protein abundance ([7]; concentration: 4mM) was 0.991 ± 0.084 and the NP40-soluble protein abundance ([7]; concentration: 6mM) was 0.947 ± 0.059. For the same compound, the NP40-soluble protein abundance ([7]; concentration: 8mM) was 0.929 ± 0.044 and the NP40-soluble protein abundance ([7]; concentration: 10mM) was 0.929 ± 0.026.
